“Also recorded” adds a separate entry of the source. At least one peptide structure holds a part that was inferred or is arguable (an end, a ring closure or a residue).
Key:
[1] = test system: db/db mice
[2] = test system: C57BL/6 mice, bleomycin induced lung fibrosis; test: Bleomycin induced lung fibrosis; format: in vivo; details: 0.1 mg/kg, 10 days after BLM
[3] = test system: C57BL/6 mice, bleomycin induced acute lung inflammation; test: Bleomycin induced acute lung inflammation; format: in vivo; details: single dose
[4] = test system: orthotopic Hep G2 human hepatocarcinoma tumor; test: Orthotopic HEP G2 human liver carcinoma, dose/response; format: in vivo; details: mice sacrificed at D171
[5] = test system: Wistar rats, PAN-induced nephropathy; test: Puromycine aminonucleoside (PAN)-induced nephropathy; format: in vivo, rat
[6] = Stability of XG-102 solutions; format: physicochemical; details: room temperature, 10 μg/ml-50 mg/ml
[7] = test system: post-operative intraocular inflammation; test: Phase II trial, efficacy in post-surgery intraocular inflammation; format: in vivo, human
Procedure: The objectives of the SDD-1002-035 study were to evaluate the efficacy and safety of a single sub-conjunctival injection of XG-102 90 or 900 μg administered within maximally 3 hours after the end of the surgical procedure compared to dexamethasone eye drops administered 4 times/day for 21 days in post-operative intraocular inflammation.
In accordance with this trial's primary objective, the primary outcome was evaluated by the mean anterior chamber cells grade at day 28 post-administration of the sub-conjunctival injection of study treatment comparing XG-102 900 μg with dexamethasone eye drops.
The present trial was a randomized (1:1:1), controlled, double-blind, multicenter non-inferiority clinical trial with three parallel groups of equal size. Randomization, which was blocked by center, was performed using a web-based, secure, randomization system. Eligible patients were male or female (post-menopausal, or sterile by tubal ligation or hysterectomy), who were >18 years of age and who had undergone one of the following ocular surgeries: (a) anterior and posterior segment combined surgery which may include surgery for: cataract and retinal detachment, cataract and epimacular membrane and/or cataract and macular hole or (b) glaucoma surgery or (c) complex posterior segment surgery or (d) complicated intraocular surgery which may include cataract surgery associated with diabetic retinopathy and/or complicated retinal detachment ocular surgery. Patients were not eligible to participate if any of the following exclusion criteria was present at the moment of randomization:
The study protocol planned that 138 patients would be randomized and administered the sub-conjunctival injection of study treatment. […] Patients were randomly allocated to either XG-102 90 or 900 μg which was administered as a single, sub-conjunctival injection of 250 μl within maximally 3 hours after the end of the eye surgery or to dexamethasone eye drops, which were instilled 4 times per day for 21 days. The first study treatment eye drop was instilled within maximally 15 minutes after the sub-conjunctival injection of study treatment. In order to maintain the blinding, patients randomized to the XG-102 group received eye drops containing a NaCl 0.9% solution and patients randomized to the dexamethasone group were administered a sub-conjunctival injection containing NaCl 0.9%. Patients were followed for, in total, 28 (±5) days after administration of the sub-conjunctival injection of study treatment. They returned to the out-patient clinic to perform the visits/investigations as required by the study protocol. […] The study protocol planned that the data safety and monitoring board (DSMB) would be responsible to oversee patient safety. This was to be achieved by reviewing Serious Adverse Events (SAE) as they occurred in addition to reviewing the cumulative patient data during the study. Details concerning the timing of the data reviews were detailed in the DSMB charter.
Patients were randomized to one of the three study groups: • 1. A single sub-conjunctival injection of XG-102 90 μg+placebo eye drops 4 times/day for 21 days or • 2. A single sub-conjunctival injection of XG-102 900 μg+placebo eye drops 4 times/day for 21 days or • 3. A single sub-conjunctival injection of NaCl 0.9%+dexamethasone eye drops 4 times/day for 21 days.
The primary objective was evaluated by the mean anterior chamber cells grade at day 28 post-administration of the sub-conjunctival administration of study treatment. The criteria for evaluation of the primary objective was
The flow chart depicting the timing and frequency of the visits in addition to the procedures to be performed at each visit may be found in the table above. The ophthalmology examinations were performed at baseline (i.e. either on the day of surgery, but before the surgery was performed). […]

[8] = test system: Brown Norway rats, laser-induced choroidal neovascularization; test: Rat argon laser-induced choroidal neovascularization (ChNV), intravitreous
[9] = test system: rat pancreatic islets; test: Rat islet isolation, dose-response; format: cell-based

With `CC(C)C[C@@H](NC(=O)[C@@H](Cc1ccccc1)NC(=O)[C@H]1CCCN1C(=O)[C@@H](CCC(N)=O)NC(=O)[C@H](NC(=O)[C@H]1CCCN1C(=O)[C@@H](CCCNC(=N)N)NC(=O)[C@@H](CO)NC(=O)[C@@H](CCC(N)=O)NC(=O)[C@H](N)CC(=O)O)C(C)C)C(=O)N[C@H](CC(N)=O)C(=O)N[C@H](CC(C)C)C(=O)N[C@@H](C(=O)N[C@@H](C(=O)N1CCC[C@@H]1C(=O)N[C@H](CCCNC(=N)N)C(=O)N[C@H](CCCCN)C(=O)N1CCC[C@@H]1C(=O)N[C@H](CCCNC(=N)N)C(=O)N1CCC[C@@H]1C(=O)N1CCC[C@@H]1C(=O)N[C@H](CCCNC(=N)N)C(=O)N[C@H](CCCNC(=N)N)C(=O)N[C@H](CCCNC(=N)N)C(=O)N[C@H](CCC(N)=O)C(=O)N[C@H](CCCNC(=N)N)C(=O)N[C@H](CCCNC(=N)N)C(=O)N[C@H](CCCCN)C(=O)N[C@H](CCCCN)C(=O)N[C@H](CCCNC(=N)N)C(=O)NCC(=O)O)[C@H](C)O)[C@H](C)O` [XG-102] the body weight ([1]; 1 mg/kg, 28 days of dosing) was “no effect”, the fasting blood glucose ([1]; 1 mg/kg, 28 days of dosing) was “no effect” and the “body weight vs vehicle control” value ([1]; 10 mg/kg) was “clear and significant (p<0.001) prevention of body weight increase”. The “fasting blood glucose vs vehicle control” value ([1]; 10 mg/kg) was “clear and significant (p<0.001) decrease in the level of fasting blood glucose”, the “fasting blood glucose level, low plateau” value ([1]; 10 mg/kg s.c. daily for 21 days) was “approximately 5 mmol/L” and the “plasma levels of insulin, MCP-1, IL-6, tPAI-1, TNF” value ([1]; 10 mg/kg, day 57, 77 and 108) was “no significant effects”. The “tissue weight of kidney and liver” value ([1]; 10 mg/kg, termination) was “significant decrease of kidney (p<0.05) and liver (p<0.01) mass”, the “tissue weight of fat pads” value ([1]; 10 mg/kg, termination day 111) was “significant decrease of epididymal (p<0.05) and retroperitoneal (p<0.01) fat mass” and the “histology: inflammatory cells accumulation, fibrotic areas, loss of lung architecture” value [2] was “not with the high dose”. For the same molecule, the “cell recruitment in bronchoalveolar lavage space” value ([3]; 0.001 mg/kg s.c.) was “has no effect on neutrophil recruitment or other cell types”, the “cell recruitment in bronchoalveolar lavage space” value ([3]; 0.1 mg/kg s.c.) was “reduces significantly the neutrophil recruitment and the number of total cells recruited” and the “MPO levels in the lung” value ([3]; s.c.) was “no effect on the MPO levels in the lung”. The “Observation: tumor masses on liver (microscopic, HE staining), individual animals” value (“Observation: tumor masses on liver” for short) ([4]; XG-102 0.1 mg/kg, 0.1 mg/kg) was “Tumor (1.3 cm) on liver; also recorded: No tumor detected”, the “Observation: tumor masses on liver” value ([4]; XG-102 1 mg/kg, 1 mg/kg) was “No tumor detected; also recorded: Tumor (1.9 cm) on liver” and the “Observation: tumor masses on liver” value ([4]; XG-102 5 mg/kg) was “No tumor detected”. For the same molecule, the PAN-induced glomerulosclerosis ([5]; 4 mg/kg, 4 iv injections starting from day 21) was “strong effect of XG-102 in reducing glomerulosclerosis”, the “glomerular damage incidence (percentage of injured glomeruli)” value ([5]; 2 and 4 mg/kg, 7 iv injections) was “significantly decreased glomerular damage incidence” and the stable in saline [6] was 8 h. For the same molecule, the “Premature withdrawal of study tx eye drops, # patients (%)” value ([7]; 90 μg XG-102 (N = 47)) was 10 (21.3%), the “anterior chamber flare grade at day 7, 14 and 28 vs dexamethasone” value ([7]; 90 μg and 900 μg, FAS) was “no statistically significant difference in the anterior chamber flare grade” and the “odds of having cleared inflammation vs usual care group” value (“odds … vs usual care group” for short) ([7]; 90 μg, FAS, day 7) was 0.52. The “odds … vs usual care group” value ([7]; 90 μg, FAS, day 14) was 0.85, the “odds … vs usual care group” value ([7]; 90 μg, FAS, day 28) was 1.24 and the “odds … vs usual care group” value ([7]; 90 μg, PP, day 7) was 0.56. The “odds … vs usual care group” value ([7]; 90 μg, PP, day 14) was 0.97, the “odds … vs usual care group” value ([7]; 90 μg, PP, day 28) was 1.45 and the “Premature withdrawal of study tx eye drops, # patients (%)” value ([7]; 900 μg XG-102 (N = 48)) was 8 (16.7%). The “odds … vs usual care group” value ([7]; 900 μg, FAS, day 7) was 0.76, the “odds … vs usual care group” value ([7]; 900 μg, FAS, day 14) was 1.25 and the “odds … vs usual care group” value ([7]; 900 μg, FAS, day 28) was 1.13. For the same molecule, the “odds … vs usual care group” value ([7]; 900 μg, PP, day 7) was 0.84, the “odds … vs usual care group” value ([7]; 900 μg, PP, day 14) was 1.12 and the “odds … vs usual care group” value ([7]; 900 μg, PP, day 28) was 1.26. For the same molecule, the “Incidence (% spots with score x), Score 0” value ([8]; 300 μg/ml, Day 14) was 1%, the “Mean score of fluorescein leakage, % of reduction vs Vehicle” value (shortened to “Mean score … % of reduction vs Vehicle”) ([8]; 300 μg/ml, Day 14) was 17% and the “Mean score … % of reduction vs Vehicle” value ([8]; 300 μg/ml, Day 21) was −9%. For the same molecule, the “Mean score … % of reduction vs Vehicle” value ([8]; 3000 μg/ml, Day 14) was 41%, the “Mean score … % of reduction vs Vehicle” value ([8]; 3000 μg/ml, Day 21) was −5% and the “islet function (static insulin secretion)” value ([9]; 15 min ischemia, 18 h after culture) was “had no impact on islet function”. The “JNK and PAF2 phosphorylation induced by 15-min ischemia” value ([9]; western blot) was “dose-dependently decreased JNK (FIG. 56 A) and PAF2 (FIG. 56 B) phosphorylation”.
